The text below walks through data of PubChem BioAssay AID2685 (National Center for Advancing Translational Sciences (NCATS), 2010).

The structures appear in SMILES notation. Some of the results follow. Shown are side measurements of this screen, not its main read-out; they come without a call. The list favours compounds with an active or inconclusive main result. Potencies come from curve fits of mixed quality, noted in brackets.

A short description of the assay: qHTS Assay for Lipid Storage Modulators in Drosophila S3 Cells.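 For cell number change: cells counted by Cell Tracker Red CMTPX staining in the red channel.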 The settings on record: BODIPY lipid droplet fluorescence, 18-24 h; for cell number change: measured here: cell count max response, cells fed with added oleic acid. The procedure, abridged:
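Laser-scanning cytometry quantifies lipid droplet accumulation (500–530 nm total intensity; droplet/cell object ratio) in oleic acid-fed (400 uM added) Drosophila S3 cells treated with a concentration series. 20 uM Triacsin C defined 100% inhibition.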

[1] abbreviates: measured here: lipid fluorescence (Fed channel) AC50, cells fed with added oleic acid.
Setting [2] is: measured here: cell number channel AC50, cells fed with added oleic acid.

Take `Cn1c(C(=O)N2CCC(C(=O)N3CCC4(CC3)OCCO4)CC2)cc2sccc21`: the cell number change is 14.2%. Also, the AC50 under setting [1] is 0.092 µM [falling, full curve, poor fit].

Regarding `COc1ccc(CNC(C)Cc2cccs2)cc1` (stereo not drawn), the cell number change was -25.3%.

As to `O=[N+]([O-])c1cccc(C2N3CCCN23)c1` (stereo not drawn), the cell number change was -42.1%.

For the compound `COC(=O)C(C)Oc1cc(C)cc2oc(=O)c3c(c12)CCCC3` (stereo not drawn), the cell number change is 88.2%. The AC50 under setting [2] is 29.1 µM [rising, single point]. Also, the AC50 under setting [1] was 6.51 µM [rising, single point].

For the compound `O=P(NS(=O)(=O)c1ccccc1)(Oc1ccccc1)Oc1ccccc1`, the cell number change is -12.1%. For the same compound, the AC50 under setting [1] is 0.0517 µM [falling, full curve].

As to `Cc1c(C(=O)N2CCC3(CC2)OCCO3)sc2ncnc(N3CCN(c4ccccn4)CC3)c12`, the cell number change was found to be 319%. Under setting [2], the concentration at half-maximal activity (AC50) is 6.51 µM [rising, partial curve]. The AC50 under setting [1] was 5.17 µM [rising, partial curve].

For `COc1ccc(-n2c(O)c(C=Nc3c(C)n(C)n(-c4ccccc4)c3=O)c(=O)[nH]c2=O)cc1`, the cell number change was 6.85%. Further, the AC50 under setting [1] was 1.16 µM [falling, full curve].

For the compound `COc1ccc(-c2nc3ccccc3c(=O)n2-c2cccnc2)cc1`, the cell number change is 5.58%.

For the compound `O=C(COc1ccc(Br)cc1)N1CCN(Cc2c[nH]c3ccccc23)CC1`, the AC50 reads like this: under setting [2], 4.61 µM [rising, single point]; under setting [1], 5.8 µM [rising, partial curve].

`CN(C)c1ccc(/C=C/C=C2/C(=O)NC(=O)N(c3ccccc3)C2=O)cc1`: the cell number change is -91.5%. In addition, under setting [2], the AC50 was 20.6 µM [falling, single point]. The AC50 under setting [1] was 0.58 µM [falling, partial curve].

Regarding `CC(C)OP(=O)(OC(C)C)C(O)c1cccnc1` (stereo not drawn), the cell number change is -27.4%. Also, the AC50 under setting [2] is 0.651 µM [falling, full curve, poor fit]. Further, under setting [1], the AC50 is 7.31 µM [falling, partial curve].

Consider `CCOC(=O)N(CC)c1ccc(C(O)(C(=O)OC)C(F)(F)F)cc1` (stereo not drawn), for which the cell number change was 12.1%. Moreover, under setting [1], the AC50 is 4.11 µM [rising, full curve].

`C[N+](C)(C)CC(=O)Nc1ccc(Cl)cc1C(=O)c1ccccc1`: the cell number change is -32.4%. The concentration at half-maximal activity (AC50) under setting [2] was 14.6 µM [falling, partial curve, poor fit].

On to `Cn1c(=O)oc2cc(S(=O)(=O)NCCC(=O)N3CCc4ccccc4C3)ccc21`, for which the AC50 under setting [2] is 16.4 µM [rising, partial curve].

Take `CC(=NCCO)c1c(O)n(C)c(=O)n(C)c1=O`: the cell number change worked out at 8.14%. In addition, the AC50 under setting [1] is 2.91 µM [rising, single point].

For `CCN(CC)C(=O)c1ccc2c(c1)C1C=CCC1C(C(=O)O)N2` (stereo not drawn), the cell number change stood at 7.75%. In addition, the half-maximal activity concentration (AC50) under setting [1] is 29.1 µM [rising, single point].

Consider `COC(=O)C1=C(c2ccc(OC)c(OC)c2)C[C@@H]2CC[C@H]1N2C(=O)NC(C)C`, for which the cell number change was determined as 11.2%. Besides, the AC50 under setting [1] was 2.59 µM [rising, full curve].

For the compound `CCC(=NCCN1CCOCC1)c1c(O)n(C2CCCCC2)c(=O)[nH]c1=O`, the cell number change is -8.86%.

For the compound `Cc1nn(-c2ccccc2)c(Cl)c1C1C(C#N)=C(N)Oc2c1c(=O)oc1ccccc21` (stereo not drawn), the cell number change was -16.9%. Under setting [1], the AC50 was 0.651 µM [rising, full curve].

For the compound `COc1ccc(S(=O)(=O)NCc2ccc(C(=O)N3CCC4(CC3)OCCO4)cc2)cc1`, the cell number change was -1.3%. Also, under setting [1], the AC50 was 0.13 µM [falling, full curve, poor fit].

With `CC(C)CCn1c(N)c(C(=O)OCC2CCCO2)c2nc3ccccc3nc21` (stereo not drawn), the AC50 was 0.411 µM [rising, full curve] under setting [2] and 0.206 µM [rising, full curve] under setting [1].

As for `CN1CSC(=S)N(C)C1`, the cell number change is -22.3%. Further, the AC50 under setting [1] was 4.11 µM [falling, partial curve].

`N#CC(Br)Br`: the cell number change turned out to be 6.92%. For the same compound, the AC50 under setting [1] was 14.6 µM [falling, partial curve, poor fit].

For the compound `CC(C)c1ccc(OCC(=O)N2CCCN(C)CC2)cc1`, the cell number change is 7.92%. The AC50 under setting [1] was 29.1 µM [rising, single point].

With `O=P(Oc1ccccc1)(Oc1ccccc1)C(O)c1ccccc1` (stereo not drawn), the cell number change turned out to be 1.42%. Also, the AC50 under setting [1] is 0.00461 µM [rising, full curve, poor fit].

Consider `COC(=O)c1ccc(NC(=O)NC(=O)Oc2ccccc2)cc1`, for which the cell number change came to 30.3%. Further, the AC50 under setting [2] was 0.0206 µM [rising, full curve, poor fit]. Also, the AC50 under setting [1] is 0.058 µM [rising, full curve, poor fit].

In the case of `O=c1[nH]c(=O)n(-c2cccc3ccccc23)c(O)c1C=NCc1ccc2c(c1)OCO2`, the cell number change is 10.8%. Besides, the AC50 under setting [2] was 0.206 µM [rising, full curve, poor fit].

With `COc1ccc(C(=O)C2CCCN(Cc3cnc(C)s3)C2)cc1OC` (stereo not drawn), the cell number change was -6.98%. Besides, under setting [1], the AC50 is 32.6 µM [falling, single point].

Take `COC(=O)C1=C(c2ccc(OC)c(OC)c2)C[C@@H]2CC[C@H]1N2C(=O)NC1Cc2ccccc2C1`: the cell number change came to 13.3%. Further, under setting [1], the AC50 is 6.51 µM [falling, single point].

With `COc1ccc(CCNCc2ccccc2)cc1`, the cell number change is 22.6%. Also, the AC50 under setting [1] was 8.2 µM [rising, partial curve].

Consider `CN1CCC(O)(c2cccs2)C(C(=O)c2cccs2)C1` (stereo not drawn), for which the cell number change is -39.6%. Besides, the AC50 under setting [2] was 11.6 µM [falling, partial curve, poor fit]. Also, the AC50 under setting [1] was 4.11 µM [falling, single point].

For `C[C@@H]1O[C@@H](O[C@@H]2C=C3CC[C@@H]4C(CC[C@]5(C)[C@@H](c6ccc(=O)oc6)CC[C@]45O)[C@@]3(C)CC2)[C@H](O)[C@H](O)[C@H]1O` (stereo partly drawn), the cell number change is -7.34%. Also, the concentration at half-maximal activity (AC50) under setting [1] was 29.1 µM [falling, single point].

`Cc1ccccc1-n1c(O)c(/C=N/N2CCOCC2)c(=O)[nH]c1=S`: the cell number change is -7.94%. Besides, the AC50 under setting [2] was 0.461 µM [rising, full curve, poor fit].

With `O=C(CCc1ccccc1)N1C[C@H]2C[C@@H](C1)c1cccc(=O)n1C2`, the cell number change is 16.2%. Also, under setting [1], the AC50 is 29.1 µM [rising, single point].

For the compound `COc1ccc(C(c2ccc(OC)cc2)C(Cl)(Cl)Cl)cc1`, the cell number change stood at 4.01%. For the same compound, under setting [2], the AC50 is 1.16 µM [falling, partial curve, poor fit]. In addition, the AC50 under setting [1] is 0.651 µM [falling, partial curve].

In the case of `CN1CCN(c2nc(Cl)ncc2F)CC1`, the cell number change was -2.1%. For the same compound, the AC50 under setting [1] was 0.00517 µM [falling, full curve, poor fit].

Turning to `Cn1c(O)c(C=NC2CC3CCC2(C)C3(C)C)c(=O)[nH]c1=O` (stereo not drawn), the cell number change worked out at 14.2%. Also, the AC50 under setting [1] is 1.3 µM [falling, full curve, poor fit].

Consider `COc1ccc(CCn2c(O)c(C=NCCCO)c(=O)[nH]c2=O)cc1OC`, for which the cell number change was determined as 6.39%. Also, under setting [1], the AC50 was 0.00461 µM [rising, full curve, poor fit].

Regarding `CN(Cc1ccccc1)C(=C(Cl)Cl)/C(=C1/NCCN1Cc1ccc(Cl)nc1)[N+](=O)[O-]`, the cell number change was 3.09%. Further, under setting [1], the AC50 was 0.82 µM [rising, full curve].

For `Cc1ccc(-n2c(O)c(C=Nc3ccc(Br)cn3)c(=O)[nH]c2=O)cc1`, the cell number change is -46.1%. Under setting [2], the AC50 was 0.731 µM [falling, full curve, poor fit].

As for `O=S(=O)(c1ccccc1)N1CC1c1ccccc1` (stereo not drawn), the cell number change was found to be 74.2%. Further, the AC50 under setting [2] was 20.6 µM [rising, single point]. Besides, the AC50 under setting [1] is 3.66 µM [falling, full curve, poor fit].

Consider `c1ccc2sc(C3CCNCC3)nc2c1`, for which the cell number change turned out to be 8.07%. Under setting [1], the AC50 is 0.184 µM [falling, full curve, poor fit].

As for `CCC(=NCc1ccco1)c1c(O)n(C)c(=O)n(C)c1=O`, the cell number change was found to be 33%. Moreover, the AC50 under setting [2] is 1.3 µM [rising, full curve, poor fit]. The AC50 under setting [1] is 0.92 µM [rising, full curve].

As to `O=C(Cc1ccccc1)Oc1ccccc1N1C(=O)CCC1=O`, the cell number change is -83.3%. In addition, the AC50 under setting [2] was 29.1 µM [falling, single point]. The AC50 under setting [1] is 29.1 µM [falling, single point].

Regarding `CCC(=O)c1cc(F)c(N2CCN(CC)CC2)cc1C`, the cell number change is -29%. Moreover, the AC50 under setting [2] is 2.91 µM [falling, full curve, poor fit]. In addition, the AC50 under setting [1] is 0.366 µM [rising, full curve].

Consider `CCOC(=O)N(c1ccccc1)P1(=S)OCCO1`, for which the cell number change was 39.2%. For the same compound, the AC50 under setting [2] was 29.1 µM [rising, single point]. Further, the AC50 under setting [1] is 20.6 µM [rising, partial curve].

As to `O=C(c1cc(C(=O)NCc2ccccc2)c(=O)n(Cc2ccccc2)c1)c1cc(Cl)ccc1O`, the cell number change is 15.3%. Further, under setting [2], the AC50 was 0.731 µM [falling, single point]. The AC50 under setting [1] is 0.00461 µM [rising, full curve, poor fit].

For the compound `N#CC1=C(N)Oc2c(c(=O)oc3ccccc23)C1c1ccccc1OC(=O)c1cccs1` (stereo not drawn), the cell number change is -10.7%.

Take `CC(C)CCC1(CN2CCCC2=O)C(=O)NC(=O)NC1=O`: the cell number change is -48.6%. The AC50 under setting [2] was 14.6 µM [falling, single point]. Moreover, under setting [1], the AC50 was 20.6 µM [falling, single point].

For the compound `O=C1NC(=O)N(Cc2ccco2)C(=O)/C1=C/c1cccn1CCOc1ccccc1Cl`, the cell number change was -25.1%. Under setting [1], the AC50 is 14.6 µM [falling, partial curve, poor fit].

Turning to `O=c1[nH]c(O)c(/C=C2/C=CC(c3cc(Cl)ccc3Cl)=N2)c(=O)[nH]1`, the cell number change turned out to be 0.915%. Moreover, under setting [1], the AC50 was 4.61 µM [falling, single point].

Turning to `FC(F)(F)c1ccc(NC2=NCCCS2)cc1`, the cell number change was -8.45%.

`O=C(c1cc([N+](=O)[O-])ccc1N1CCNCC1)N1CCOCC1`: the cell number change is -4.68%. The AC50 under setting [1] is 0.0731 µM [rising, full curve, poor fit].

On to `CC(C)c1oc(=O)cc2c1[C@@H](O)[C@H]1OC(=O)[C@@]3(C)CC[C@@H](O)[C@@]2(C)C13` (stereo partly drawn), for which the cell number change was -20.5%. For the same compound, the AC50 under setting [1] is 9.2 µM [falling, partial curve].

Turning to `C[N+]1=C(/C=C/Nc2ccccc2)C(C)(C)c2ccccc21`, the cell number change is -36%. For the same compound, the AC50 under setting [2] was 8.2 µM [falling, partial curve, poor fit]. For the same compound, the AC50 under setting [1] is 23.1 µM [falling, partial curve, poor fit].
